According to the supplement of paper PMC11732987, “Enantioselective OTUD7B fragment discovery through chemoproteomics screening and high-throughput optimisation” (Communications Chemistry, 2025):
The other results are listed elsewhere or left out. The data scatter; read single values as rough.

Amino acid sequences for entries named in this document (tags omitted). A change or cut given only in a name is not applied to a line headed by its entry.
UniProt Q14692: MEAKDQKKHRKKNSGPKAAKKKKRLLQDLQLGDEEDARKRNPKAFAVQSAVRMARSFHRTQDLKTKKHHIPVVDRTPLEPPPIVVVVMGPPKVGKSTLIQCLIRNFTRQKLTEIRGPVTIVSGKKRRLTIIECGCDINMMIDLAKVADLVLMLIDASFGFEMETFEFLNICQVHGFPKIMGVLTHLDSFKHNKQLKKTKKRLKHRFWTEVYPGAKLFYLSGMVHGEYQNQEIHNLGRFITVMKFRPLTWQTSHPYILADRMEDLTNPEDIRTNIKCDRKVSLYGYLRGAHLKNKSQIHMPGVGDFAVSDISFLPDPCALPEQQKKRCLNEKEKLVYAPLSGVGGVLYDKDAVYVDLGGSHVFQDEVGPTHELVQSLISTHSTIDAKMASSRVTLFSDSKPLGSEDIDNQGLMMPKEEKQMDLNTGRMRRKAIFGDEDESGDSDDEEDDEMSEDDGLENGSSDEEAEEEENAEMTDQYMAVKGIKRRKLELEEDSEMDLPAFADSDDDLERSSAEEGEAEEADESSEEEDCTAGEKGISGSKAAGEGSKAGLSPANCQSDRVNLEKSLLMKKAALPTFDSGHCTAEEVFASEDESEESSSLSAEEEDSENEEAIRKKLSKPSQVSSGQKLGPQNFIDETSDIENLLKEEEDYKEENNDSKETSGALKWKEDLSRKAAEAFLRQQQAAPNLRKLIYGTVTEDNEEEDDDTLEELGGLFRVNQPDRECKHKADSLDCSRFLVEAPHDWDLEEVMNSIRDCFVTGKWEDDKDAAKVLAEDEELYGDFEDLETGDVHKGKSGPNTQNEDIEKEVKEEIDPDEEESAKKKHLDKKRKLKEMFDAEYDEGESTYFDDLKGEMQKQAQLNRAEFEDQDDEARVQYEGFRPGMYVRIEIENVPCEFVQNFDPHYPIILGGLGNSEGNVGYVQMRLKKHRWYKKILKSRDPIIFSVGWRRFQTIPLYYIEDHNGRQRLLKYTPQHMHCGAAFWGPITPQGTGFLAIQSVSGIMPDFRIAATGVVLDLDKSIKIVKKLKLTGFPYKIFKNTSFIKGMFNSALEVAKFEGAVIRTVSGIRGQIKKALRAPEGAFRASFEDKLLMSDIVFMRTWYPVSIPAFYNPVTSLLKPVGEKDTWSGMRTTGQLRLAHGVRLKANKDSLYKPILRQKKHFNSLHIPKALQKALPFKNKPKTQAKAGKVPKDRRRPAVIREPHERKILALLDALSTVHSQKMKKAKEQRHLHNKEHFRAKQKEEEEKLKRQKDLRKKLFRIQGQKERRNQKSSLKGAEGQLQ
UniProt Q76L83: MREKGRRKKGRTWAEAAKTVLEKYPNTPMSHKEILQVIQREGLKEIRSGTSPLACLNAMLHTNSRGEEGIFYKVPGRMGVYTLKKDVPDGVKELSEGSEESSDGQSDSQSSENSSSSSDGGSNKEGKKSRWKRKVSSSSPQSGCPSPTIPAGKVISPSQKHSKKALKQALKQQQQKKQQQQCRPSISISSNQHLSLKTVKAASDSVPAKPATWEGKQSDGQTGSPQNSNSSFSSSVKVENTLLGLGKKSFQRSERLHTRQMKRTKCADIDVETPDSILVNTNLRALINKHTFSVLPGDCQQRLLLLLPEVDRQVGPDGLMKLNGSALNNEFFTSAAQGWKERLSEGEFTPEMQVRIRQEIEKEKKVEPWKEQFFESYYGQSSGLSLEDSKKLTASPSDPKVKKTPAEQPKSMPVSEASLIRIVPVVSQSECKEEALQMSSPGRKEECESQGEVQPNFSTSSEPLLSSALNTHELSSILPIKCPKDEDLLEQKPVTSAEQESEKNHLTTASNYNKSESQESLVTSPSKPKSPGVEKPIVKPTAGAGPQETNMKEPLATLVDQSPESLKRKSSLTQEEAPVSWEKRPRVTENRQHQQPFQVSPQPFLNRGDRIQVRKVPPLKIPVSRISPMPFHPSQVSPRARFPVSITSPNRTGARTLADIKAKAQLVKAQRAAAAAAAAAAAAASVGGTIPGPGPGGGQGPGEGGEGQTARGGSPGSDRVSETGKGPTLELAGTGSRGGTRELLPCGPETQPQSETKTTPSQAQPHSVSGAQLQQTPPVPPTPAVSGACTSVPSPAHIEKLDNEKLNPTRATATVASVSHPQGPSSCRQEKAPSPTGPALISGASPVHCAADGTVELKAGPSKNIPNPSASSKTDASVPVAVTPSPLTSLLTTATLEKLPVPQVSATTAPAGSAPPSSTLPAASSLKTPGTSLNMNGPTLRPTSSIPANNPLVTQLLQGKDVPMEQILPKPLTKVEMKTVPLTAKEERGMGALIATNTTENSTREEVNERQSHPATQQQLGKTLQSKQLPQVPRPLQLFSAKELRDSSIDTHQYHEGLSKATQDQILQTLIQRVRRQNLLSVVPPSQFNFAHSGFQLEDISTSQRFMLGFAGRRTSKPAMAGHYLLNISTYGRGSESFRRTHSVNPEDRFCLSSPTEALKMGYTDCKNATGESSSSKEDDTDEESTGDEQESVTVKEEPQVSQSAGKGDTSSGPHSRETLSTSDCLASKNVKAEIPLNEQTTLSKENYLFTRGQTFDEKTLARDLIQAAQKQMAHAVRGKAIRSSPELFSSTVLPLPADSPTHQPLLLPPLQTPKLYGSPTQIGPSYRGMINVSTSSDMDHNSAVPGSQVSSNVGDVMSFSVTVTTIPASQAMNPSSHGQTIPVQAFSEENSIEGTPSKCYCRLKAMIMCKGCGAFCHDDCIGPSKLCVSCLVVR
UniProt Q13315: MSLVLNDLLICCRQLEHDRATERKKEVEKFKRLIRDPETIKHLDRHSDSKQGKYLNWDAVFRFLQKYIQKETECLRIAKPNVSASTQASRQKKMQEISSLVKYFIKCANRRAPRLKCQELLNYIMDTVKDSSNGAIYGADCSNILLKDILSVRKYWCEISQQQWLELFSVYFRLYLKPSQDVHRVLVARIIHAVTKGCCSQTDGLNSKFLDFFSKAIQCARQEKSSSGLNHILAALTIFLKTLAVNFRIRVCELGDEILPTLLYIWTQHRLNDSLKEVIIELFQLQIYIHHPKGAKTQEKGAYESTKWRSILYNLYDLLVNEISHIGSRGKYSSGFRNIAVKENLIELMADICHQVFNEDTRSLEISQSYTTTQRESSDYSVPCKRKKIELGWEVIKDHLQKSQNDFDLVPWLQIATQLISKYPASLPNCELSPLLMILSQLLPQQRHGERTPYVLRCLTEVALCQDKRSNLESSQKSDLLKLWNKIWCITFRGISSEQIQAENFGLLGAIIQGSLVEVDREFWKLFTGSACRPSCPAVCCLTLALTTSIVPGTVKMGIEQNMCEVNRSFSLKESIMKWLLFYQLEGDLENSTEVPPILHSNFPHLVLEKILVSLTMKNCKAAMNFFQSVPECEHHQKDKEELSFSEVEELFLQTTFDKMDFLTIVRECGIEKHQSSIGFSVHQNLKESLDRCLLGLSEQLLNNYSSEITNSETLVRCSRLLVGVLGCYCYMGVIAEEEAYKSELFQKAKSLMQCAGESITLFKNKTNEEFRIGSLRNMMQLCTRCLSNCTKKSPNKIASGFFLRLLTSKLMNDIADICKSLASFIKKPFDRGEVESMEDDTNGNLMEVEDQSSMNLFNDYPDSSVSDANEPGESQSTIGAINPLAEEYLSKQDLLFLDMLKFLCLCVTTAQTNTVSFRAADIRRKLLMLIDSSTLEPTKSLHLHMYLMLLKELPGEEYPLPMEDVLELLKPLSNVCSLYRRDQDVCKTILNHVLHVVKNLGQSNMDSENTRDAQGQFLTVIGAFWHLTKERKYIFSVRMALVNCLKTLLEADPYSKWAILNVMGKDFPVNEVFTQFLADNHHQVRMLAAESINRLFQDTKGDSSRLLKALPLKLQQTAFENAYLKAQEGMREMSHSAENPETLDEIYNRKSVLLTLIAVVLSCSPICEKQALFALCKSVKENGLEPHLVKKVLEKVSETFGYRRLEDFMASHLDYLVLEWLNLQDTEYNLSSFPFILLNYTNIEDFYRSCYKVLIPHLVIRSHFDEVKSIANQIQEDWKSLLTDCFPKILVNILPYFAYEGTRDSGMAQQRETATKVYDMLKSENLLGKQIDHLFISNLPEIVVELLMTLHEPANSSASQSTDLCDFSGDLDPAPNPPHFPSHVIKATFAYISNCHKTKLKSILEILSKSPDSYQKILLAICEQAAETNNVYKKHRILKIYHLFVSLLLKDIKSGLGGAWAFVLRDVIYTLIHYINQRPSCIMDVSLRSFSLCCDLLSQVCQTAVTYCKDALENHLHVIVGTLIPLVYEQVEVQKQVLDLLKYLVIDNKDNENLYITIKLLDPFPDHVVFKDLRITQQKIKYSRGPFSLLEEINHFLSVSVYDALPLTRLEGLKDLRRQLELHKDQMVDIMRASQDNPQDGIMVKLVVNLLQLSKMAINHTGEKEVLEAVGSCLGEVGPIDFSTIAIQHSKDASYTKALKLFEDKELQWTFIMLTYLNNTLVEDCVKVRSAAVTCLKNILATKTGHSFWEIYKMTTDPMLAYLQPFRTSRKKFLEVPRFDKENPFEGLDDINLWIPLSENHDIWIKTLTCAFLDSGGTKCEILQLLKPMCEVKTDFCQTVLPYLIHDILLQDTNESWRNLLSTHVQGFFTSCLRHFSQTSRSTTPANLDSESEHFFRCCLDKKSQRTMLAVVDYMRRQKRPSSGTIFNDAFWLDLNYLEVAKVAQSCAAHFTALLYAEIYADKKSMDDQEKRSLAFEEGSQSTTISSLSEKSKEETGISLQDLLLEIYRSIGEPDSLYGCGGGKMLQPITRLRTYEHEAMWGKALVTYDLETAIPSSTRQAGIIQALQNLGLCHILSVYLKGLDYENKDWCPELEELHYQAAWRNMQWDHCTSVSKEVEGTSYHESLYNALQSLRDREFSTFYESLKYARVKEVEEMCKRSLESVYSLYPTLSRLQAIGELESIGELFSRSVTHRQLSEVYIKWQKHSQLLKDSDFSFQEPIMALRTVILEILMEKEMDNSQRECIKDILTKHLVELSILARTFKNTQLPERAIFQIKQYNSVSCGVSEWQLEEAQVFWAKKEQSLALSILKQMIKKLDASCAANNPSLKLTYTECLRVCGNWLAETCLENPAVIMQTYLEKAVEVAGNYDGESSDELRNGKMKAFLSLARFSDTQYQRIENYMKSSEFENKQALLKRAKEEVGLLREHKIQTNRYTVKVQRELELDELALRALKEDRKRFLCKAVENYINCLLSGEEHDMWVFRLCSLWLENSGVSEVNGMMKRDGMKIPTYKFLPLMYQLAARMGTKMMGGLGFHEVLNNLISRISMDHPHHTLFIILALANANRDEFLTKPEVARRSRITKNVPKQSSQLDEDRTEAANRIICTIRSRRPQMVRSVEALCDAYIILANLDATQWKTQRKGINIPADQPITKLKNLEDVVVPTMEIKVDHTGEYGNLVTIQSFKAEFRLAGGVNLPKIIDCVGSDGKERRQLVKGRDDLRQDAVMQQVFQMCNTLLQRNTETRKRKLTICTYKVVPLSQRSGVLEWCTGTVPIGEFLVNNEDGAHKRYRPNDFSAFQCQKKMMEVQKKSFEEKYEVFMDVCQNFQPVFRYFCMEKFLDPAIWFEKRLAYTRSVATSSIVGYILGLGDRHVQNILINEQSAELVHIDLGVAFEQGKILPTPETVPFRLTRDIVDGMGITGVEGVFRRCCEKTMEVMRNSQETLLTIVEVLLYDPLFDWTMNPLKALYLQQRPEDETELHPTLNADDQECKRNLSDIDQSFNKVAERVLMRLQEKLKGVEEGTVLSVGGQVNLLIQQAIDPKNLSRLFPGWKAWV
UniProt Q5T6C5: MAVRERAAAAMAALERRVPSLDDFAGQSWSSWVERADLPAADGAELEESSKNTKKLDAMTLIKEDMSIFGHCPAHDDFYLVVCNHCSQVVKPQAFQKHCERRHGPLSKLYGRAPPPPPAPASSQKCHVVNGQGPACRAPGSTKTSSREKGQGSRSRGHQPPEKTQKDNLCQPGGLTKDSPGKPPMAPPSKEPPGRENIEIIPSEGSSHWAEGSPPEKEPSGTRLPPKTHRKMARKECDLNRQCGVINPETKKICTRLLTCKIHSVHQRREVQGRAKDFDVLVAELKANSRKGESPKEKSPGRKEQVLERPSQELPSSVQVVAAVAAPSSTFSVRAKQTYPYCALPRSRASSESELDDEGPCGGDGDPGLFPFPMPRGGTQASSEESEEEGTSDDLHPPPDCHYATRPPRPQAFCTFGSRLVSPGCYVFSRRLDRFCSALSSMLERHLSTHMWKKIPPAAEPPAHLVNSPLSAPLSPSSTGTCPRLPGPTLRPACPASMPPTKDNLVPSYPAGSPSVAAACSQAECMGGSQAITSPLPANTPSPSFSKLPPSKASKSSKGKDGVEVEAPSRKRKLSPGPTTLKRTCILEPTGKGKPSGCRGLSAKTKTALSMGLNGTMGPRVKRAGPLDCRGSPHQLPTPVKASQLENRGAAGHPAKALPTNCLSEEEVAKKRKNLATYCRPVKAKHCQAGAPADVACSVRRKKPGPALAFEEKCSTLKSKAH

What follows are targets tested with ClCC(=O)N[C@@H]1CCCc2ccccc12 (assay: log2 mean competition ratio of IA-DTB cysteine labelling (DMSO/compound) (log2 ratio); higher = stronger cysteine engagement by compound). Settings: 50 µM; treatment time: 4 h; cell line lysate: HEK293T.
Protocol: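 IA-DTB competitive cysteine chemoproteomics in HEK293T RIPA lysate. Lysates were treated with compound 29 or 30 at 50 or 200 µM for 4 h, then IA-DTB (500 µM, 1 h), trypsin-digested, NeutrAvidin-enriched and analysed by diaPASEF. Competition ratio = intensity DMSO / intensity compound (n=4 treated, n=64 DMSO); binding: mean log2 CR ≥ 1 and p ≤ 0.05 plus QC filters. Target is the cysteine site.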
BAZ1A C404 (UniProt Q9NRL2) was tested, and the “log2 mean competition ratio” value was -0.581. ATP6V1G1 C69 (UniProt O75348) was tested, and the “log2 mean competition ratio” value was -0.0351. With ATRX C618 (UniProt P46100) the “log2 mean competition ratio” value was 0.0115. With ATR C1343 (UniProt Q13535) the “log2 mean competition ratio” value was 0.0335. For ASXL1 C672 (UniProt Q8IXJ9), the “log2 mean competition ratio” value was 0.0619. In the case of AXIN1 C221 (UniProt O15169), the “log2 mean competition ratio” value is reported as 0.0693. ATP7A C160 (UniProt Q04656) was tested, and the “log2 mean competition ratio” value was -0.0359. BCOR C494 (UniProt Q6W2J9) was tested, and the “log2 mean competition ratio” value was -0.101. For BAZ1B C1348 (UniProt Q9UIG0), the “log2 mean competition ratio” value was -0.0126. BMS1 C725 (UniProt Q14692) was tested, and the “log2 mean competition ratio” value was -0.148. With ASXL2 C1225 (UniProt Q76L83) the “log2 mean competition ratio” value was -0.179. BCAS3 C139 (UniProt Q9H6U6) was tested, and the “log2 mean competition ratio” value was -0.121. ATM C564 (UniProt Q13315) was tested, and the “log2 mean competition ratio” value was -0.226. In the case of ATPAF1 C321 (UniProt Q5TC12), the “log2 mean competition ratio” value is reported as 0.0123. In the case of ATG2B C1750 (UniProt Q96BY7), the “log2 mean competition ratio” value is reported as -0.0818. With BIRC6 C2910 the “log2 mean competition ratio” value was -0.0489. ATXN2 C852 was tested, and the “log2 mean competition ratio” value was -0.0193. With ASXL2 C144 (UniProt Q76L83) the “log2 mean competition ratio” value was 0.475. In the case of ATXN7L2 C585 (UniProt Q5T6C5), the “log2 mean competition ratio” value is reported as 0.0747. In the case of BCKDHA C197 (UniProt P12694), the “log2 mean competition ratio” value is reported as -0.142. For ATP11C C200, the “log2 mean competition ratio” value was -0.237. For ATM C2021 (UniProt Q13315), the “log2 mean competition ratio” value was -0.0824. In the case of BNIP2 C229, the “log2 mean competition ratio” value is reported as 0.232. With BACH1 C140 (UniProt O14867) the “log2 mean competition ratio” value was 0.0457. For BCL2L12 C254 (UniProt Q9HB09), the “log2 mean competition ratio” value was 0.203. For ATM C633 (UniProt Q13315), the “log2 mean competition ratio” value was -0.0033. ATP6V1C1 C15 (UniProt P21283) was tested, and the “log2 mean competition ratio” value was 0.331. In the case of BMS1 C556 (UniProt Q14692), the “log2 mean competition ratio” value is reported as -0.0559. With ATF7IP C955 (UniProt Q6VMQ6) the “log2 mean competition ratio” value was -0.175. With ATAD5 C1720 (UniProt Q96QE3) the “log2 mean competition ratio” value was -0.0308. For BCL2L11 C110 (UniProt O43521), the “log2 mean competition ratio” value was -0.235. For BMP2K C92 (UniProt Q9NSY1), the “log2 mean competition ratio” value was 0.262. In the case of ATP13A1 C711 (UniProt Q9HD20), the “log2 mean competition ratio” value is reported as -0.202. In the case of ATXN2 C301, the “log2 mean competition ratio” value is reported as 0.00981. In the case of BDP1 C1797 (UniProt A6H8Y1), the “log2 mean competition ratio” value is reported as -0.0461.

Same assay, conditions: 200 µM; treatment time: 4 h; cell line lysate: HEK293T
BAZ1A C404 (UniProt Q9NRL2) was tested, and the “log2 mean competition ratio” value was 0.104. ATP6V1G1 C69 (UniProt O75348) was tested, and the “log2 mean competition ratio” value was -0.109. ATRX C618 (UniProt P46100) was tested, and the “log2 mean competition ratio” value was -0.0114. With ATR C1343 (UniProt Q13535) the “log2 mean competition ratio” value was 0.142. ASXL1 C672 (UniProt Q8IXJ9) was tested, and the “log2 mean competition ratio” value was 0.28. In the case of AXIN1 C221 (UniProt O15169), the “log2 mean competition ratio” value is reported as 0.581. ATP7A C160 (UniProt Q04656) was tested, and the “log2 mean competition ratio” value was 0.151. BCOR C494 (UniProt Q6W2J9) was tested, and the “log2 mean competition ratio” value was -0.243. With BAZ1B C1348 (UniProt Q9UIG0) the “log2 mean competition ratio” value was -0.141. With BMS1 C725 (UniProt Q14692) the “log2 mean competition ratio” value was 0.354. In the case of ASXL2 C1225 (UniProt Q76L83), the “log2 mean competition ratio” value is reported as -0.0214. BCAS3 C139 (UniProt Q9H6U6) was tested, and the “log2 mean competition ratio” value was -0.0231. ATM C564 (UniProt Q13315) was tested, and the “log2 mean competition ratio” value was 0.037. With ATPAF1 C321 (UniProt Q5TC12) the “log2 mean competition ratio” value was -0.0797. In the case of ATG2B C1750 (UniProt Q96BY7), the “log2 mean competition ratio” value is reported as 0.203. With BIRC6 C2910 the “log2 mean competition ratio” value was -0.211. In the case of ATXN2 C852, the “log2 mean competition ratio” value is reported as -0.325. ASXL2 C144 (UniProt Q76L83) was tested, and the “log2 mean competition ratio” value was -0.337. With ATXN7L2 C585 (UniProt Q5T6C5) the “log2 mean competition ratio” value was -0.158. With BCKDHA C197 (UniProt P12694) the “log2 mean competition ratio” value was 0.236. ATP11C C200 was tested, and the “log2 mean competition ratio” value was -0.161. ATM C2021 (UniProt Q13315) was tested, and the “log2 mean competition ratio” value was 0.0765. For BNIP2 C229, the “log2 mean competition ratio” value was 0.102. BACH1 C140 (UniProt O14867) was tested, and the “log2 mean competition ratio” value was 0.33. For BCL2L12 C254 (UniProt Q9HB09), the “log2 mean competition ratio” value was 0.158. ATM C633 (UniProt Q13315) was tested, and the “log2 mean competition ratio” value was -0.192. ATP6V1C1 C15 (UniProt P21283) was tested, and the “log2 mean competition ratio” value was -0.0307. BMS1 C556 (UniProt Q14692) was tested, and the “log2 mean competition ratio” value was -0.0645. With ATF7IP C955 (UniProt Q6VMQ6) the “log2 mean competition ratio” value was 0.108. For ATAD5 C1720 (UniProt Q96QE3), the “log2 mean competition ratio” value was -0.0212. With BCL2L11 C110 (UniProt O43521) the “log2 mean competition ratio” value was 0.0564. BMP2K C92 (UniProt Q9NSY1) was tested, and the “log2 mean competition ratio” value was 0.0987. In the case of ATP13A1 C711 (UniProt Q9HD20), the “log2 mean competition ratio” value is reported as -0.402. In the case of ATXN2 C301, the “log2 mean competition ratio” value is reported as 0.222. For BDP1 C1797 (UniProt A6H8Y1), the “log2 mean competition ratio” value was -0.242.
